Results are given in words; binding and its absence hold for the method and conditions named. In cells and extracts the contact can be indirect. Some binding calls cover weakened binding; strength is not graded here.
Tests used:
Test in all cases: co-IP; whole cell extracts of HEK293T cells transiently co-transfected with Snail1-HA and a LOXL2 variant; immunoprecipitated with anti-Flag M2 affinity gel (LOXL2, ΔLOXL2) or anti-LOXL2 antibody (H626/628Q); Western blot with anti-LOXL2 or anti-HA
[1] = target: LOXL2-H626/628Q-HA (human) (UniProt Q9Y4K0)
[2] = target: LOXL2-Δ547-667-Flag (mouse) (UniProt P58022)
LOXL2-Flag (human) = LOXL2-Flag (human) (UniProt Q9Y4K0)

Protein sequences, listed by entry. Tags and fused reporters are not part of them. Lines headed by an entry give the natural chain unless they say otherwise; changes in a name come on top. Chains listed by the source or under a name are the forms on record and can include a tag or linker. Residues count along the entry.
LOXL2-Flag (Q9Y4K0, residues 26-774): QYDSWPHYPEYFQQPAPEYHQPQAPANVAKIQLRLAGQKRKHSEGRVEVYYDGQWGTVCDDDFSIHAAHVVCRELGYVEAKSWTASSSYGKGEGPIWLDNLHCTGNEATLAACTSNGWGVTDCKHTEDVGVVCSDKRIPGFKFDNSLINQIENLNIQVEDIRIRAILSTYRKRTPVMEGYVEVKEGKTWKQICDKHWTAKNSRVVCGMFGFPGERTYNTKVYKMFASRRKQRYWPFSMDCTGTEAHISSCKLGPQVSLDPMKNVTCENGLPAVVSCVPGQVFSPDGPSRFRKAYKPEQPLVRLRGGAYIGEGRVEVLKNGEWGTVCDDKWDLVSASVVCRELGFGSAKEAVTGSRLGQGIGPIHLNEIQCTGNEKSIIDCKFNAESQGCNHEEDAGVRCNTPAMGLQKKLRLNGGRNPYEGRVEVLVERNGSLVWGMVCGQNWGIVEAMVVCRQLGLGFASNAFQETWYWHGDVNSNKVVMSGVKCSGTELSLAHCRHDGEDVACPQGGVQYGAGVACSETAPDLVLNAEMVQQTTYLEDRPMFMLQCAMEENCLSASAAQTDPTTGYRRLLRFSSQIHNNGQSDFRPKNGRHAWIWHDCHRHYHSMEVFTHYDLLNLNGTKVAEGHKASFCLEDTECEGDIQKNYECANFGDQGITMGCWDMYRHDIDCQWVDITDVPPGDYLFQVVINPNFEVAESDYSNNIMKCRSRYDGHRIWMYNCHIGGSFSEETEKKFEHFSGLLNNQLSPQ
LOXL2-H626/628Q-HA (Q9Y4K0, form named): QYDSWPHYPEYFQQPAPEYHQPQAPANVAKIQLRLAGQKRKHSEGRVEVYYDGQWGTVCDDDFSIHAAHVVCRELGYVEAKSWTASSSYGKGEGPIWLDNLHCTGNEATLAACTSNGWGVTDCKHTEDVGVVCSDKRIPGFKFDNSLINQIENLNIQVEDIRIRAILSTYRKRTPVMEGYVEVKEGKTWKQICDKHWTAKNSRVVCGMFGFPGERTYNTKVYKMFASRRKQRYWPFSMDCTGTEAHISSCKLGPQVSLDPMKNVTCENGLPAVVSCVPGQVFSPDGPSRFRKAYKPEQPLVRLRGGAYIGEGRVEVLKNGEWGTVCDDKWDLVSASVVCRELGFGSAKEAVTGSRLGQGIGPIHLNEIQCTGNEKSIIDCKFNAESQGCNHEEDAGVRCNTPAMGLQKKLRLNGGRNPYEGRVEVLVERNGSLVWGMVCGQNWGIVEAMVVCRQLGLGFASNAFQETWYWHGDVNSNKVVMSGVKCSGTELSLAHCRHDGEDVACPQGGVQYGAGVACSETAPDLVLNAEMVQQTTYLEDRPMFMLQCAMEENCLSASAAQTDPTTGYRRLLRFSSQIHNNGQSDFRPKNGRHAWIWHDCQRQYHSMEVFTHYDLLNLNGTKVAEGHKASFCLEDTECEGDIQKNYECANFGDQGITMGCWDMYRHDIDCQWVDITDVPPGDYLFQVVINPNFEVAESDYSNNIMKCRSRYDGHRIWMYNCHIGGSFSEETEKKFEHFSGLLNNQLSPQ
LOXL2-Δ547-667-Flag (P58022, form named): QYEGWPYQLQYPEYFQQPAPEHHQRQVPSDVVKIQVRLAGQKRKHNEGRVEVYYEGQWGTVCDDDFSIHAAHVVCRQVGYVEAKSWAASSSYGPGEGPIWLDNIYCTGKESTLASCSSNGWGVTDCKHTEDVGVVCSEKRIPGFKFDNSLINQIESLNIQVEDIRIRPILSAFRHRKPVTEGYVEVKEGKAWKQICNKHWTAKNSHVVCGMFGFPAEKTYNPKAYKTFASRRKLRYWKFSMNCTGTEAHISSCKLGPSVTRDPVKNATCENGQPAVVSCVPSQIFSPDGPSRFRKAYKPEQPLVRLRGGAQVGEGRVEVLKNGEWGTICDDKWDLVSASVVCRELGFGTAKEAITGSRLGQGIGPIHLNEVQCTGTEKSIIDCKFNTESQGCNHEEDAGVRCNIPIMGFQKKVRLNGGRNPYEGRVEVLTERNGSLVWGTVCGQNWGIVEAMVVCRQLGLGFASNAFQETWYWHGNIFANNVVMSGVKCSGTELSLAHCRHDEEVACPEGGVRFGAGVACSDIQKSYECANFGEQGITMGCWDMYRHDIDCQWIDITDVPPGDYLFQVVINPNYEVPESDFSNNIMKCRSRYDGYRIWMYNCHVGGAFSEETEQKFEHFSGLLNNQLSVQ
UniProt O95863: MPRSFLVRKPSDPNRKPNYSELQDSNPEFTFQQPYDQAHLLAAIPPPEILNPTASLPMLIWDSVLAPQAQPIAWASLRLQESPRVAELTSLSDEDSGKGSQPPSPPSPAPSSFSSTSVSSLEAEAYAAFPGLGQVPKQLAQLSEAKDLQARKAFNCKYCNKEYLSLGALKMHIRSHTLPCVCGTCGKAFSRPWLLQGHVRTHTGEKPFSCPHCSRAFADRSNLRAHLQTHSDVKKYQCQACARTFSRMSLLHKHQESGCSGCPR

binding [1]: binds | binding [2]: binds | binding (LOXL2-Flag (human)): binds
Substance: Snail1-HA (from UniProt O95863 1-264)

— PMC3925316
